Test results taken from PMC5352113.
These are yes or no findings as the source states them, for the method shown. Binding seen in cells or lysates may run through a third protein. Some entries that bind do so weakly or less than the wild type.

Protein sequences, listed by entry. Tags and fused reporters are not part of them. Lines headed by an entry give the natural chain unless they say otherwise; changes in a name come on top.
UniProt P17301: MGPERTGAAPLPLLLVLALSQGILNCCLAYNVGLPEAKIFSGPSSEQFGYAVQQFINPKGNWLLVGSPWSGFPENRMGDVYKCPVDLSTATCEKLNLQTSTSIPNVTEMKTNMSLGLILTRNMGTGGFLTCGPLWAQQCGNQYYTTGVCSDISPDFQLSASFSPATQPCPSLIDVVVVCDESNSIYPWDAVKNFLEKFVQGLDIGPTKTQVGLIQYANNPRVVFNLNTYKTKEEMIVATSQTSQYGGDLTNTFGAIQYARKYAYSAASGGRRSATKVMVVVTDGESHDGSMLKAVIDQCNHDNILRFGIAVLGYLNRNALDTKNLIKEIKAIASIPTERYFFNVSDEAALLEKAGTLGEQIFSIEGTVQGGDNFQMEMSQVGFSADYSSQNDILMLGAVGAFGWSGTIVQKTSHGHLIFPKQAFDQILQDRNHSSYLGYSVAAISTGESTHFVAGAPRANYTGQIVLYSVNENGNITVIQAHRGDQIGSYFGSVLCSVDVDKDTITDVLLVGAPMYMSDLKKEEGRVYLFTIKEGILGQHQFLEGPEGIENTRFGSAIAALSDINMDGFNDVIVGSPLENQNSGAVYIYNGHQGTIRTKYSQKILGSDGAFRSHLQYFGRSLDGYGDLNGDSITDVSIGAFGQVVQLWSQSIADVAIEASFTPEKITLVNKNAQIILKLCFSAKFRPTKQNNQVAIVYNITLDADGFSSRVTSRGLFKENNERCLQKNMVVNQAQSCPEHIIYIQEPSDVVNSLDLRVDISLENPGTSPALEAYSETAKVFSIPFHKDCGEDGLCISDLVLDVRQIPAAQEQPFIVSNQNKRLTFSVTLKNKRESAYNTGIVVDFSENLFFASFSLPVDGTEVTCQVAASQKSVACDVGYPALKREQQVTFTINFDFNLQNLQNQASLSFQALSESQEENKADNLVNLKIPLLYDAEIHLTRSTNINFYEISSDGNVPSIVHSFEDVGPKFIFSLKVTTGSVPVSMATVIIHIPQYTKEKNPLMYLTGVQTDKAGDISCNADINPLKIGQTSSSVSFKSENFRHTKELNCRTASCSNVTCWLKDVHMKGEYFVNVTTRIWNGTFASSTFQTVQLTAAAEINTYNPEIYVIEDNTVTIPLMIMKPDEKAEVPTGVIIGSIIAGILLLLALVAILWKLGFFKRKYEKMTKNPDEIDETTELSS

Target: T1, vascular endothelial (VE)-cadherin (human (endogenous in BLM, A375, MDA-MB-468, SKBR3)) (UniProt P33151)
T1 sequence: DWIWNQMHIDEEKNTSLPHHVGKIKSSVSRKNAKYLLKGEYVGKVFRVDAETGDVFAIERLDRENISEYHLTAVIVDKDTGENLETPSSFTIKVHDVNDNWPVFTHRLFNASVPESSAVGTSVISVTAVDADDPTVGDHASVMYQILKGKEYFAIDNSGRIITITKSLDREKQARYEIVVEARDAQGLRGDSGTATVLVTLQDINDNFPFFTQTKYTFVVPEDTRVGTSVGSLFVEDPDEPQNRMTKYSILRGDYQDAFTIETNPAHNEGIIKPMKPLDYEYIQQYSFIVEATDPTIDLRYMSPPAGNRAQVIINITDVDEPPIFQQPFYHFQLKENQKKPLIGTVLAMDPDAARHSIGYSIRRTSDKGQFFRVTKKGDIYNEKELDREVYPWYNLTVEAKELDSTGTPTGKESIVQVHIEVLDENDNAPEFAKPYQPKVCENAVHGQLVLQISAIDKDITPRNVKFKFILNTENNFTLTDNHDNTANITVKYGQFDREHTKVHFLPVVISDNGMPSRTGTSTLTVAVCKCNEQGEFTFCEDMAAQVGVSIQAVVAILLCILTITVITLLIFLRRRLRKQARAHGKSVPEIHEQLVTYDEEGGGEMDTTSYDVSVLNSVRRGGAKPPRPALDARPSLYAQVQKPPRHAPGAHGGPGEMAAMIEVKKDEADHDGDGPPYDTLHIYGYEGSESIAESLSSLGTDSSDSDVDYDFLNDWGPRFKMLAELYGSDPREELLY
Assay: co-IP; 500 μg of lysate (1% Igepal, 100 mM NaCl, 2 mM MgCl2, 10% glycerol, 50 mM Tris-HCl) of BLM and MDA-MB-468 cells (Figure 3b also A375 and SKBR3), immunoprecipitated with anti-VE-cadherin, anti-α2 integrin, anti-αv integrin or control antibodies and protein G sepharose; western blot; also after siRNA against α2 or αv integrin

With “α2β1 integrin (from UniProt P17301 30-1181; P05556 21-798) (complex)” the binding was “binds”.
